{
  "source": "patent US12673108B2",
  "about": "(Oxford University Innovation Limited, priority 2021, dated 2026)",
  "data": [
    {"test": "general procedure: Fmoc solid-phase peptide synthesis; Fmoc-beta-Ala-OH preloaded Wang resin (0.19 or 0.46 mmol g-1); PyBOP/NMM; PyBOP/HOAt/DIPEA (or HBTU) for PMO conjugation", "settings": "conjugation step, UV-Vis, based on PMO extinction coefficient", "units": {"conjugation yield": "%"}, "values": [
      {"substance": "PMO-(E)-RBRRBRRFQILYRBHBH-NH2", "conjugation yield": 48},
      {"substance": "Ac-RBRRBRRFQILYRBHBH-(E)-PMO", "conjugation yield": 27},
      {"substance": "Ac-RBRRBRFQILYRBHBH-(E)-PMO", "conjugation yield": 49},
      {"substance": "PMO-(Succ)-RBRRBRRFQILYRBHBH-NH2", "conjugation yield": 64}
    ]}
  ]
}
